PubChem BioAssay AID720505 – Drosophila RNAi Screening Center | 2013
The screen tested about 20,000 reagents; shown is a random part of those with a known target gene and a result. In the full data, about 2,100 (10%) are marked active. 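Raw plate signals without normalisation; calls rest on control-based scores that were not deposited; replicate 2 separates called from uncalled poorly.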 Unmarked entries are inactive. No sequences are given here. The record does not give: the amount of reagent, the time to read-out.

Aim: 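Fly regulators or components of the CRAC channel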 (primary screen)
Cells: Drosophila S2R+ cells
Reagent: long dsRNA against Drosophila genes
Challenge: thapsigargin (2 µM) in calcium-free buffer to empty internal stores, then 2 mM calcium added back
Measurement: 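Fluo-4 signal in 384-well plates read on a FLIPR after thapsigargin (2 µM, calcium-free) store depletion and 2 mM calcium add-back; unnormalised mean endpoint per well; screen run twice, selected wells retested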
Reading the numbers: calcium signal and retest calcium signal: higher = more calcium entry after store depletion
Call rule: 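Knock-downs counted as hits when calcium entry dropped relative to STIM1 positive and Rho1 negative controls present on each plate; roughly 1500 genes called, with reductions of differing size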
Meaning of the calls: active = called as lowering calcium entry; inactive = not called

no.	target gene	DRSC id	calcium signal, replicate 1	calcium signal, replicate 2	retest calcium signal, replicate 1	retest calcium signal, replicate 2
1	CG11275 (GeneID 37534)	DRSC04095	204	82.5		
2	cGlr1 (GeneID 36744)	DRSC06270	100	108		
3	PolA2 (GeneID 43278)	DRSC16641	143	157		
4	CG3829 (GeneID 38000)	DRSC04423	144	105		
5	CG7296 (GeneID 34469)	DRSC03042	93.4	121	110	140
6	CG7296 (GeneID 34469)	DRSC22343	92.1	232		
7	Myo31DF (GeneID 34445)	DRSC03376	85.1	113		
8	Myo31DF (GeneID 34445)	DRSC22702	97.1	179		
9	CG13847 (GeneID 42636)	DRSC14697	169	267		
10	CG13847 (GeneID 42636)	DRSC23172	143	106		
11	Act42A (GeneID 35526)	DRSC04835	144	120		
12	Sfxn1-3 (GeneID 40552)	DRSC12183	106	161		
13	Ahcy (GeneID 32471)	DRSC19329	141	92.5		
14	aurB (GeneID 34504)	DRSC03548	78.2	112		
15	aurB (GeneID 34504)	DRSC23324	102	142		
16	CG4733 (GeneID 42368)	DRSC15634	170	152		
17	CG34109 (GeneID 4379890)	DRSC02169	116	108		
18	CG34109 (GeneID 4379890)	DRSC02224	101	123		
19	CG34109 (GeneID 4379890)	DRSC02225	87.7	111		
20	Prat (GeneID 40935)	DRSC16797	78.9 (active)	124		
21	CG17982 (GeneID 31739)	DRSC18143	180	115		
22	CG15877 (GeneID 38304)	DRSC08485	105	110		
23	AstA-R2 (GeneID 43393)	DRSC14171	173	151		
24	Crys (GeneID 34604)	DRSC03294	112	93.6		
25	Cyp6w1 (GeneID 35543)	DRSC04909	155	79.2		
26	jing (GeneID 35555)	DRSC04923	169	162		
27	jing (GeneID 35555)	DRSC04927	86.1	115		
28	jing (GeneID 35555)	DRSC05000	195	104		
29	crq (GeneID 33219)	DRSC00810	85.7	133		
30	Adsl (GeneID 42051)	DRSC15500	210	245		
31	Rpe (GeneID 35692)	DRSC06407	134	108		
32	CG33282 (GeneID 2768939)	DRSC00422	114	132		
33	CG15059 (GeneID 32806)	DRSC19633	114	129		
34	Cog6 (GeneID 35953)	DRSC06806	199	124		
